A negative result means that nothing was seen under these conditions.

The target of the data set is T1, His6-σ8 (SigB-like sigma factor) (Streptomyces avermitilis) (UniProt Q82PY0).
T1 sequence (looked up): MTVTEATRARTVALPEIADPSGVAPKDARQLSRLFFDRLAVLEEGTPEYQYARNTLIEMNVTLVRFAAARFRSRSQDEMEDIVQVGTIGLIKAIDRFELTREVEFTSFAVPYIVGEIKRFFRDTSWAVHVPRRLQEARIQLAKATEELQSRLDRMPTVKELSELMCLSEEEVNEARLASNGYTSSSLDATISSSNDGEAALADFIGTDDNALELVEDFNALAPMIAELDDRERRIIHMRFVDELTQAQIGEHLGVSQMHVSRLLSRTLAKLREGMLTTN
Put plainly: EMSA. Particulars: EMSA with 0.15 nM DIG-labeled probe, 0.25-1 uM His6-σ8, ~300-fold excess unlabeled competitor; pH and temperature not given (as in Sun et al., 2016); recombinant protein; residues 1-279; protein details: N-terminal His6 (pET-28a); label: 3' DIG; probe letters rebuilt from the primers and the genome. A general note: A gel shift assay detects complexes by their altered migration in electrophoresis.

For the sequence “TTCAGATGGACGGCTACCGCACCCTGGAAGAGGGTCAGCGGGTCGATTTCGAGATCTCGCAAGGCCAGAAGGGGCCGCAGGCGGACATGGTCCGACTGGCGACCGGCTGAAGCACGCGCCGACTGACTGTTCGACGTGACGAAGGGCCCGTATCCCCTCCGGGGTACGGGCCCTTCGGTCTGCCCCGGGGCGTCCGGAGCGCCTGCGCACGTGTGGGGCGCACAGGTGCGTTCACCTGCGGATTGCCTGGAGCCGCTTGCACTCGGCAGGGGCGAGTGCTAATCATTGGCGTTAGCACTCT (double strand) [groEL2p]”, the binding result is “no binding”.

Values taken from article PMC5402319.
